The results in this text go back to PMC10497406, “PCNA recruits cohesin loader Scc2 to ensure sister chromatid cohesion” (Nature Structural & Molecular Biology, 2023).

By UniProt entry, the sequences of proteins in these tests, tags left out. Where a name states a change or a piece, a line headed by the entry shows the natural chain unless it says otherwise.
UniProt Q04002: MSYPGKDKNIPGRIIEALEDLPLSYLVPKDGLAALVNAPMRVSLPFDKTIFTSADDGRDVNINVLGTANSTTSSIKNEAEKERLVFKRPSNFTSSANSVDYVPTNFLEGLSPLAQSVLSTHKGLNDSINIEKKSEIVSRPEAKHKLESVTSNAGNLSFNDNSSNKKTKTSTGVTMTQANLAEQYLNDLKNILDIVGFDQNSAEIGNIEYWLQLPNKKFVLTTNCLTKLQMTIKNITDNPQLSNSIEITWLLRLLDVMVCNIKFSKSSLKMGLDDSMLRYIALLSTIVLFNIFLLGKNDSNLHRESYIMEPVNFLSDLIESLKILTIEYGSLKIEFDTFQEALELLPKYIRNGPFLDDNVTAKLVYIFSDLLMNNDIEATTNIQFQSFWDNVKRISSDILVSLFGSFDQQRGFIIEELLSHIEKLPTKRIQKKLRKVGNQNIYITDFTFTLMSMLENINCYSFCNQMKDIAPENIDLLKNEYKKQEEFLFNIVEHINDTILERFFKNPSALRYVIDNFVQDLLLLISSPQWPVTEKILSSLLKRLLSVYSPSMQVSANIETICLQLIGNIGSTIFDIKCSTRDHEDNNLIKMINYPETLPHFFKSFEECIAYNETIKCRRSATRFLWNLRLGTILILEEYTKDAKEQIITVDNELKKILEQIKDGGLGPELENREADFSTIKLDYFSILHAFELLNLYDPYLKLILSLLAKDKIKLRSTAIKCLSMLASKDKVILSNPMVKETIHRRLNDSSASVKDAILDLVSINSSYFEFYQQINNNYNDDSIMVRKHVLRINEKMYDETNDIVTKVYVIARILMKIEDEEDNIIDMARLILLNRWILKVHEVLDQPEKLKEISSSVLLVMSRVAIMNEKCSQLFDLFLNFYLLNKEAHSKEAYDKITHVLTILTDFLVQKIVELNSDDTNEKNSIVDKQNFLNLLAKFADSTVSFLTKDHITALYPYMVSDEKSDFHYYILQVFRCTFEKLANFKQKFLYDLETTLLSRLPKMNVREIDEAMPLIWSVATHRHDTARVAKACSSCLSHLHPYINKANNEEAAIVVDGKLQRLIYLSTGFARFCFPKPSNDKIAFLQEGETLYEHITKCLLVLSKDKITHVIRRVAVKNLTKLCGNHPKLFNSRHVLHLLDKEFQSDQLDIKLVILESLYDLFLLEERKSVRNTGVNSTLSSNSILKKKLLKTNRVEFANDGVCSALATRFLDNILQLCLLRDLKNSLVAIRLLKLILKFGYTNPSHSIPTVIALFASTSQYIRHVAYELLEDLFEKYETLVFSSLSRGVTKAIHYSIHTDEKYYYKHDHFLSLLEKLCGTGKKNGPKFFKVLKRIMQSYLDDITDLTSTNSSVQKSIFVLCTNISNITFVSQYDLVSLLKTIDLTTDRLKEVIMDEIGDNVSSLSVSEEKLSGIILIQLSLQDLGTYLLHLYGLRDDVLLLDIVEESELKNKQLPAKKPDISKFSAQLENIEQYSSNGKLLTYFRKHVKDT
UniProt P15873: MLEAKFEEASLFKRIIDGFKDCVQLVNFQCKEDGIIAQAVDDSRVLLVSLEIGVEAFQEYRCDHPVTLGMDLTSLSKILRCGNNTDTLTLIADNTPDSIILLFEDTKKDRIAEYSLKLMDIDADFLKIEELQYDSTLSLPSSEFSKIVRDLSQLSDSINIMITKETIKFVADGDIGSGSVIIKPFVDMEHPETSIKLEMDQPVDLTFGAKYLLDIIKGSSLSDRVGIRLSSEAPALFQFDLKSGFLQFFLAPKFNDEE
UniProt A0A8V1AEC9: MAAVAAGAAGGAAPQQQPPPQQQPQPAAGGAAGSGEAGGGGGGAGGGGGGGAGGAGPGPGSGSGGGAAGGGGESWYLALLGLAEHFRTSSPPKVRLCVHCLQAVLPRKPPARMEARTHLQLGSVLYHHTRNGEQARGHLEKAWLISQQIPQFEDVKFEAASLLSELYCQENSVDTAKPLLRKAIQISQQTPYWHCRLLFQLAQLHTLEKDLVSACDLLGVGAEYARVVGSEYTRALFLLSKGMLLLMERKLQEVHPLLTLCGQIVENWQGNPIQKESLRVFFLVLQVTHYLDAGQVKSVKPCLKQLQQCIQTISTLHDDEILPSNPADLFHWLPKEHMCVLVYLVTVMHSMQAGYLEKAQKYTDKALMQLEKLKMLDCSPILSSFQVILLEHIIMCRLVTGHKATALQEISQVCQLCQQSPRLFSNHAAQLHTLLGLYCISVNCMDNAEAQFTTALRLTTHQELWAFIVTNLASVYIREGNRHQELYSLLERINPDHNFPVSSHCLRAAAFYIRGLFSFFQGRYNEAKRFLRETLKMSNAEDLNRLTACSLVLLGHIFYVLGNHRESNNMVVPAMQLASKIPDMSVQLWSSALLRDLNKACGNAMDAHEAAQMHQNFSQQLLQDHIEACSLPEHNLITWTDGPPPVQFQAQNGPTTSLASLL
UniProt Q9DEA3: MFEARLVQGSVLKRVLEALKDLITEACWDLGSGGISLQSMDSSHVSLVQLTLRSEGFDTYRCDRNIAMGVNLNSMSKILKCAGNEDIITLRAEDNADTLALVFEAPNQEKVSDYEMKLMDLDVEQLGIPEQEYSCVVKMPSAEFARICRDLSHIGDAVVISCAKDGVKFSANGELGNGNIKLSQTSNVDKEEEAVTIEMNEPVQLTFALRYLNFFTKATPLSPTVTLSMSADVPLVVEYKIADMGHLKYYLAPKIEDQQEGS

The target of assay [1] is N-terminally 7His8Flag (HF)-tagged Scc2^E822K-pip (S. cerevisiae) (UniProt Q04002). In words: cross-linking; yeast cultures cross-linked with 1% formaldehyde for 30 min; Ni-NTA pulldown of HF-tagged Scc2^E822K under denaturing conditions; blot with anti-Pol30.
The target of assay [2] is 3HA–NIPBL (chicken), overexpressed (chicken) (UniProt F1NJ66). Nature of the assay: co-IP; IP of overexpressed 3HA–NIPBL with anti-HA magnetic beads from sonicated DT40 lysates, overnight; washes 200 mM NaCl, 0.5% NP-40.

These are yes or no findings as the source states them, for the method shown. Binding seen in cells or lysates may run through a third protein. For part of these data: Binding calls can cover weak binding; strength is not graded here.

In the case of “Pol30 (yeast PCNA), endogenous (from UniProt P15873 1-258)”, the binding entry in assay [1] is given as “no binding”.

Regarding “chicken MAU2, endogenous (from UniProt A0A8V1AEC9 1-662)”, the binding entry in assay [2] was “binds”.

“chicken PCNA, endogenous (from UniProt Q9DEA3 1-262)”: the binding entry in assay [2] is reported as “binds”.
